1 molecule from the supplement of paper PMC8728848 can be followed below.

The list shows a part of the results.

What all share (test): glycan array binding signal (z-score within array); higher = stronger binding
What all share (conditions): glycan notation: IUPAC condensed, linker removed

The target in assay [1] is GlcNAc(b1-3)Gal(b1-4)GlcNAc. In outline: (§1)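 The binding signal is a Z-score computed within each array and averaged over linkers. Arrays of the same protein sequence at different concentrations or buffers were also averaged together. Data originate from 3228 arrays in the Consortium for Functional Glycomics database, kept only where the protein sequence was available.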

For assay [2], the target named is GlcNAc(b1-3)Gal(b1-4)GlcNAc(b1-2)Man(a1-3)[GlcNAc(b1-3)Gal(b1-4)GlcNAc(b1-2)Man(a1-6)]Man(b1-4)GlcNAc(b1-4)GlcNAc. In outline:
as §1

Assay [3] has as its target GlcNAc(b1-3)Gal(b1-4)GlcNAc(b1-2)Man(a1-3)[GlcNAc(b1-3)Gal(b1-4)GlcNAc(b1-2)Man(a1-6)]Man(b1-4)GlcNAc(b1-4)[Fuc(a1-6)]GlcNAc. In outline:
as §1

The target in assay [4] is GlcNAc(b1-3)Gal(b1-4)GlcNAc(b1-2)[GlcNAc(b1-3)Gal(b1-4)GlcNAc(b1-6)]Man(a1-6)[GlcNAc(b1-3)Gal(b1-4)GlcNAc(b1-2)Man(a1-3)]Man(b1-4)GlcNAc(b1-4)GlcNAc. In outline: as §1
Assay [5] concerns the target GlcNAc(b1-3)Gal(b1-4)GlcNAc(b1-3)Gal(b1-4)GlcNAc. In outline:
as §1

For assay [6], the target named is GlcNAc(b1-3)Gal(b1-4)GlcNAc(b1-3)Gal(b1-4)GlcNAc(b1-2)Man(a1-3)[GlcNAc(b1-3)Gal(b1-4)GlcNAc(b1-3)Gal(b1-4)GlcNAc(b1-2)Man(a1-6)]Man(b1-4)GlcNAc(b1-4)GlcNAc. In outline:
as §1

For assay [7], the target named is GlcNAc(b1-3)Gal(b1-4)GlcNAc(b1-3)Gal(b1-4)GlcNAc(b1-2)Man(a1-3)[GlcNAc(b1-3)Gal(b1-4)GlcNAc(b1-3)Gal(b1-4)GlcNAc(b1-2)Man(a1-6)]Man(b1-4)GlcNAc(b1-4)[Fuc(a1-6)]GlcNAc. In outline: as §1
Assay [8] concerns the target GlcNAc(b1-3)Gal(b1-4)GlcNAc(b1-3)Gal(b1-4)GlcNAc(b1-2)[GlcNAc(b1-3)Gal(b1-4)GlcNAc(b1-3)Gal(b1-4)GlcNAc(b1-6)]Man(a1-6)[GlcNAc(b1-3)Gal(b1-4)GlcNAc(b1-3)Gal(b1-4)GlcNAc(b1-2)Man(a1-3)]Man(b1-4)GlcNAc(b1-4)[Fuc(a1-6)]GlcNAc. A digest of the protocol: as §1
Assay [9] has as its target GlcNAc(b1-3)Gal(b1-4)GlcNAc(b1-3)Gal(b1-4)GlcNAc(b1-3)Gal(b1-4)GlcNAc(b1-2)Man(a1-3)[GlcNAc(b1-3)Gal(b1-4)GlcNAc(b1-3)Gal(b1-4)GlcNAc(b1-3)Gal(b1-4)GlcNAc(b1-2)Man(a1-6)]Man(b1-4)GlcNAc(b1-4)GlcNAc. A digest of the protocol:
as §1

In assay [10] the target is GlcNAc(b1-3)Gal(b1-4)GlcNAc(b1-3)Gal(b1-4)GlcNAc(b1-3)Gal(b1-4)GlcNAc(b1-2)Man(a1-3)[GlcNAc(b1-3)Gal(b1-4)GlcNAc(b1-3)Gal(b1-4)GlcNAc(b1-3)Gal(b1-4)GlcNAc(b1-2)Man(a1-6)]Man(b1-4)GlcNAc(b1-4)[Fuc(a1-6)]GlcNAc. In outline: as §1
Assay [11] deals with GlcNAc(b1-3)Gal(b1-4)GlcNAc(b1-3)Gal(b1-4)GlcNAc(b1-3)Gal(b1-4)GlcNAc(b1-2)[GlcNAc(b1-3)Gal(b1-4)GlcNAc(b1-3)Gal(b1-4)GlcNAc(b1-3)Gal(b1-4)GlcNAc(b1-6)]Man(a1-6)[GlcNAc(b1-3)Gal(b1-4)GlcNAc(b1-3)Gal(b1-4)GlcNAc(b1-3)Gal(b1-4)GlcNAc(b1-2)Man(a1-3)]Man(b1-4)GlcNAc(b1-4)[Fuc(a1-6)]GlcNAc. In outline:
as §1

Assay [12] deals with GlcNAc(b1-3)Gal(b1-4)GlcNAc(b1-3)Gal(b1-4)GlcNAc(b1-3)Gal(b1-4)GlcNAc(b1-3)Gal(b1-4)GlcNAc(b1-2)Man(a1-3)[GlcNAc(b1-3)Gal(b1-4)GlcNAc(b1-3)Gal(b1-4)GlcNAc(b1-3)Gal(b1-4)GlcNAc(b1-3)Gal(b1-4)GlcNAc(b1-2)Man(a1-6)]Man(b1-4)GlcNAc(b1-4)GlcNAc. In outline:
as §1

The target of assay [13] is GlcNAc(b1-3)Gal(b1-4)GlcNAc(b1-3)Gal(b1-4)GlcNAc(b1-3)Gal(b1-4)GlcNAc(b1-3)Gal(b1-4)GlcNAc(b1-2)Man(a1-3)[GlcNAc(b1-3)Gal(b1-4)GlcNAc(b1-3)Gal(b1-4)GlcNAc(b1-3)Gal(b1-4)GlcNAc(b1-3)Gal(b1-4)GlcNAc(b1-2)Man(a1-6)]Man(b1-4)GlcNAc(b1-4)[Fuc(a1-6)]GlcNAc. A digest of the protocol: as §1
In assay [14] the target is GlcNAc(b1-3)Gal(b1-4)GlcNAc(b1-3)Gal(b1-4)GlcNAc(b1-3)Gal(b1-4)GlcNAc(b1-3)Gal(b1-4)GlcNAc(b1-2)[GlcNAc(b1-3)Gal(b1-4)GlcNAc(b1-3)Gal(b1-4)GlcNAc(b1-3)Gal(b1-4)GlcNAc(b1-3)Gal(b1-4)GlcNAc(b1-6)]Man(a1-6)[GlcNAc(b1-3)Gal(b1-4)GlcNAc(b1-3)Gal(b1-4)GlcNAc(b1-3)Gal(b1-4)GlcNAc(b1-3)Gal(b1-4)GlcNAc(b1-2)Man(a1-3)]Man(b1-4)GlcNAc(b1-4)[Fuc(a1-6)]GlcNAc. A digest of the protocol:
as §1

Assay [15] deals with GlcNAc(b1-3)Gal(b1-4)GlcNAc(b1-3)Gal(b1-4)GlcNAc(b1-3)GalNAc. In outline: as §1
The target in assay [16] is GlcNAc(b1-3)Gal(b1-4)GlcNAc(b1-3)GalNAc. In outline:
as §1

Assay [17] concerns the target GlcNAc(b1-3)Gal(b1-4)GlcNAc(b1-3)[GlcNAc(b1-3)Gal(b1-4)GlcNAc(b1-3)]GalNAc. In outline: as §1
The target in assay [18] is GlcNAc(b1-3)Gal(b1-4)GlcNAc(b1-6)[Gal(b1-3)]GalNAc. In outline:
as §1

In assay [19] the target is GlcNAc(b1-3)Gal(b1-4)GlcNAc(b1-6)[GlcNAc(b1-3)Gal(b1-3)]GalNAc. In outline: as §1
In assay [20] the target is GlcNAc(b1-3)Gal(b1-4)GlcNAc(b1-6)[GlcNAc(b1-3)]Gal(b1-4)GlcNAc. A digest of the protocol: as §1
The target of a further assay is GlcNAc(b1-3)GalNAc. In outline: as §1
The next assay has as its target GlcNAc(b1-3)Man. A digest of the protocol:
as §1

B1: Pbx2CASH domain (Cryptococcus neoformans) (protein)
chain: GIPGPNRLYRLSGPIIFTAADQEIATYGYPTGSERAVLRVEGRNTATAIQGDCRRCARVSVKNLVVDGNRKKLGRMRDFQLATGLVVLGGNEGQSIQNSWIKNPRGFTAIHIREGDKLQCSGARVEKNEIGPVGEEYDPEKDGDDPEMSPLGRPLADGVSIACRDSFIRDNTFRDNTDAAIVVYCSPGTLIHA
Regarding B1, the “glycan array binding signal (z-score)” value was -0.534 in [1]; -0.118 in assay [2]; -0.072 in assay [3]; 1.44 in assay [4]; -0.766 in assay [5]; 1.5 in assay [6]. The “glycan array binding signal (z-score)” value in assay [7] was 0.592; in assay [8], 1.47; in [9], 0.656; in assay [10] it was 0.339; in assay [11] it was 1.64; in assay [12], -0.177. The “glycan array binding signal (z-score)” value in [13] was -0.255; in [14], 1.04; in assay [15], 0.639; in assay [16] it was -0.708; in assay [17], -0.221; in assay [18], -0.855. The “glycan array binding signal (z-score)” value in [19] is -0.16; in assay [20], 0.085; with GlcNAc(b1-3)GalNAc, -0.111; with GlcNAc(b1-3)Man, -0.258.
